Measurements taken from article PMC10657456.
These are yes or no findings as the source states them, for the method shown. Binding seen in cells or lysates may run through a third protein. A yes stands for co-enrichment or nearness to the bait. Other partners may have been found.

Amino acid sequences for entries named in this document (tags omitted).
UniProt Q93009: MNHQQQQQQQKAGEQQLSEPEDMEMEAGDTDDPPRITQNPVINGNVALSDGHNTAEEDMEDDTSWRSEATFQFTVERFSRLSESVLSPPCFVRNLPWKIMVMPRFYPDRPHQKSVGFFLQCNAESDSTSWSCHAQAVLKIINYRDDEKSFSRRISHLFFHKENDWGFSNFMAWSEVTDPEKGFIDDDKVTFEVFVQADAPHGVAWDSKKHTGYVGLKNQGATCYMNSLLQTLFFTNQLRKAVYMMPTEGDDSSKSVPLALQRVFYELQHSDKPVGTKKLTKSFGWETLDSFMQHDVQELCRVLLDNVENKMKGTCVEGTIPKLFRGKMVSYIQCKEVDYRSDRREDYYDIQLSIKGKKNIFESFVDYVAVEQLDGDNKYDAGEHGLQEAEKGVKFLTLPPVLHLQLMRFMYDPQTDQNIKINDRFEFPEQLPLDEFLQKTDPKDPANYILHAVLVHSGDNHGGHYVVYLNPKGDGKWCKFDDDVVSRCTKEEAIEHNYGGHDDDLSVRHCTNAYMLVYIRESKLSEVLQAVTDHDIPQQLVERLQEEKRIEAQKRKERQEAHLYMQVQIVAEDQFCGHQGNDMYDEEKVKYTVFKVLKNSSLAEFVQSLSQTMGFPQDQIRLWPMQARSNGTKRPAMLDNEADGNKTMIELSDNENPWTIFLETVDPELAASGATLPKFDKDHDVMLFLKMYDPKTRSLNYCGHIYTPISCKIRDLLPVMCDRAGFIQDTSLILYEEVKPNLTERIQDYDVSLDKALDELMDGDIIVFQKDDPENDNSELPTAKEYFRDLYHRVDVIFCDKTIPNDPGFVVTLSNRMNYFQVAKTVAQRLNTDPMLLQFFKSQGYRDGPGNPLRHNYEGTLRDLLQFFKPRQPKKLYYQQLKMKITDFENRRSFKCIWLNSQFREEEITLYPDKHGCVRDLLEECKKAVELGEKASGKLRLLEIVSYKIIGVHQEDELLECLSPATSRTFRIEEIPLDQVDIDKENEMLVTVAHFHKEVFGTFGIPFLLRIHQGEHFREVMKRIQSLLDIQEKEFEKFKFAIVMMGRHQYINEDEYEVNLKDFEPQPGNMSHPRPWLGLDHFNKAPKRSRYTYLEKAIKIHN
UniProt P09874: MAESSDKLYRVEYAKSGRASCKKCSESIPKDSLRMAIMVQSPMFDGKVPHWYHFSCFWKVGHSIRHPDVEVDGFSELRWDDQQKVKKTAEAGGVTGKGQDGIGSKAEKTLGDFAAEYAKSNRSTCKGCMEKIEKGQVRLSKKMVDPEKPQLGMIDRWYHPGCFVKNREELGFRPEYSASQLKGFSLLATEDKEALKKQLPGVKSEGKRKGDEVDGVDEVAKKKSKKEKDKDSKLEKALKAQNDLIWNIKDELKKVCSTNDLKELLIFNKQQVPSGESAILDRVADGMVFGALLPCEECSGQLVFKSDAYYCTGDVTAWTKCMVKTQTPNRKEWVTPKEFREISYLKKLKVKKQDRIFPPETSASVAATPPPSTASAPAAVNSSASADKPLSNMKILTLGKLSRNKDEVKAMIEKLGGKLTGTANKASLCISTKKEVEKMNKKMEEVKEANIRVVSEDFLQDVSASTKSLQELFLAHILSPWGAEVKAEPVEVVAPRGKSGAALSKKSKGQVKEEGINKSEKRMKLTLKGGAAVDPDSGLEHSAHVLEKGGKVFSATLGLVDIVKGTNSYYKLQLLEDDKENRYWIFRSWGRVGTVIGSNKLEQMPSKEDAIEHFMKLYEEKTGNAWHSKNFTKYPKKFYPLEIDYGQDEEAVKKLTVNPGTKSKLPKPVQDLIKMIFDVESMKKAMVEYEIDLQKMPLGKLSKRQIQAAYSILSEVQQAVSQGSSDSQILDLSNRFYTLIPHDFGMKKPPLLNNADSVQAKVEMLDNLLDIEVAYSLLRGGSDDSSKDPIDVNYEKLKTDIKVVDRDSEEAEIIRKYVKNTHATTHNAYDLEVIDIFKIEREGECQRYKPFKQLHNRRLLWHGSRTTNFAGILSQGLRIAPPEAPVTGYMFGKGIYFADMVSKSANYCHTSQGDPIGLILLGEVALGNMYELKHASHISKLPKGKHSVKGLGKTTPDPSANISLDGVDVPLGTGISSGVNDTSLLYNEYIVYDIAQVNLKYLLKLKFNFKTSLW
UniProt P18887: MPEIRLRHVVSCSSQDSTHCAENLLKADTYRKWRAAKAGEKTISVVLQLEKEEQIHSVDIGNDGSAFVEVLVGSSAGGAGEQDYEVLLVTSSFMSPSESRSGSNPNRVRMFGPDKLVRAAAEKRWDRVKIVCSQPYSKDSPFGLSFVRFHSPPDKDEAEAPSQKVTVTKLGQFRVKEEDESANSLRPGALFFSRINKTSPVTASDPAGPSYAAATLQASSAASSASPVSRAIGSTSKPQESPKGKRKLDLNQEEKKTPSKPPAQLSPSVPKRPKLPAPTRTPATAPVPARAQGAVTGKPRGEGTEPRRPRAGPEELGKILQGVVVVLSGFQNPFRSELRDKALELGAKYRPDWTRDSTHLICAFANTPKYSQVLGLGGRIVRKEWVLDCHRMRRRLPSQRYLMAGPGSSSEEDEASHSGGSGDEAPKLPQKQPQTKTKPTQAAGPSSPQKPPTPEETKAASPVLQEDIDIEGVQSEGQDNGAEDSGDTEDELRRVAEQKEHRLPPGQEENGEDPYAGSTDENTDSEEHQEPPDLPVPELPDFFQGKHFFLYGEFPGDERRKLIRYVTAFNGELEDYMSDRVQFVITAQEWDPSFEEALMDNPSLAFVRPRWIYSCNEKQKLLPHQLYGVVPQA

T1: Topoisomerase 3β (TOP3B), endogenous (human (endogenous in HEK293 and HCT116)) (UniProt O95985)
T1 sequence: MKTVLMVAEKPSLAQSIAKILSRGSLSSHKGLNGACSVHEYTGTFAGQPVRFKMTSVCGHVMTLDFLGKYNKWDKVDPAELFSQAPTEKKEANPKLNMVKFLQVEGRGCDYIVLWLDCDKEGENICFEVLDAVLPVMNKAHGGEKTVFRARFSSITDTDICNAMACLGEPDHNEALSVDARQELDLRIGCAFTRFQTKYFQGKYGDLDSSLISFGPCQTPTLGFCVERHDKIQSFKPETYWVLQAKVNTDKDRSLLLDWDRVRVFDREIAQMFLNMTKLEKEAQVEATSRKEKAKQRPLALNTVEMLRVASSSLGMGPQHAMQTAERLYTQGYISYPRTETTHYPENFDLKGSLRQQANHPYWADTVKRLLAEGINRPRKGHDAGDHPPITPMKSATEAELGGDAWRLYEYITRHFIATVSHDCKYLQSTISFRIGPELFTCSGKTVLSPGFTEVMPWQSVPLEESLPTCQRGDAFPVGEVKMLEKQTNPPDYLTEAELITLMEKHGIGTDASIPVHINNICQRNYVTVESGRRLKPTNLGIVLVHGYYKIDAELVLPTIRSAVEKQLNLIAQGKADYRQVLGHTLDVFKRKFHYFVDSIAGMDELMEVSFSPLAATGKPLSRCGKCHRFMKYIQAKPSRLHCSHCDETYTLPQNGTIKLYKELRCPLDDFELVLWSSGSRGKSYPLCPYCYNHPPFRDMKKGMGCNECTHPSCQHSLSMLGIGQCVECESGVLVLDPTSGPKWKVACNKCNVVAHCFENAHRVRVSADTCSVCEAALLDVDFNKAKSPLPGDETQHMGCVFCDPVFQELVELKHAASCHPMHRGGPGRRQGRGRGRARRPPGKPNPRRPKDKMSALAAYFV

B1: LIG3, endogenous (enzyme, UniProt P49916 43-1009)
chain: LLHGHPLFLRRKPVLSFQGSHLRSRATYLVFLPGLHVGLCSGPCEMAEQRFCVDYAKRGTAGCKKCKEKIVKGVCRIGKVVPNPFSESGGDMKEWYHIKCMFEKLERARATTKKIEDLTELEGWEELEDNEKEQITQHIADLSSKAAGTPKKKAVVQAKLTTTGQVTSPVKGASFVTSTNPRKFSGFSAKPNNSGEAPSSPTPKRSLSSSKCDPRHKDCLLREFRKLCAMVADNPSYNTKTQIIQDFLRKGSAGDGFHGDVYLTVKLLLPGVIKTVYNLNDKQIVKLFSRIFNCNPDDMARDLEQGDVSETIRVFFEQSKSFPPAAKSLLTIQEVDEFLLRLSKLTKEDEQQQALQDIASRCTANDLKCIIRLIKHDLKMNSGAKHVLDALDPNAYEAFKASRNLQDVVERVLHNAQEVEKEPGQRRALSVQASLMTPVQPMLAEACKSVEYAMKKCPNGMFSEIKYDGERVQVHKNGDHFSYFSRSLKPVLPHKVAHFKDYIPQAFPGGHSMILDSEVLLIDNKTGKPLPFGTLGVHKKAAFQDANVCLFVFDCIYFNDVSLMDRPLCERRKFLHDNMVEIPNRIMFSEMKRVTKALDLADMITRVIQEGLEGLVLKDVKGTYEPGKRHWLKVKKDYLNEGAMADTADLVVLGAFYGQGSKGGMMSIFLMGCYDPGSQKWCTVTKCAGGHDDATLARLQNELDMVKISKDPSKIPSWLKVNKIYYPDFIVPDPKKAAVWEITGAEFSKSEAHTADGISIRFPRCTRIRDDKDWKSATNLPQLKELYQLSKEKADFTVVAGDEGSSTTGGSSEENKGPSGSAVSRKAPSKPSASTKKAEGKLSNSNSKDGNMQTAKPSAMKVGEKLATKSSPVKVGEKRKAADETLCQTKVLLDIFTGVRLYLPPSTPDFSRLRRYFVAFDGDLVQEFDMTSATHVLGSRDKNPAAQQVSPEWIWACIRKRRLVAPC
B2: USP39, endogenous (protein, UniProt Q53GS9 1-565)
chain: MSGRSKRESRGSTRGKRESESRGSSGRVKRERDREREPEAASSRGSPVRVKREFEPASAREAPASVVPFVRVKREREVDEDSEPEREVRAKNGRVDSEDRRSRHCPYLDTINRSVLDFDFEKLCSISLSHINAYACLVCGKYFQGRGLKSHAYIHSVQFSHHVFLNLHTLKFYCLPDNYEIIDSSLEDITYVLKPTFTKQQIANLDKQAKLSRAYDGTTYLPGIVGLNNIKANDYANAVLQALSNVPPLRNYFLEEDNYKNIKRPPGDIMFLLVQRFGELMRKLWNPRNFKAHVSPHEMLQAVVLCSKKTFQITKQGDGVDFLSWFLNALHSALGGTKKKKKTIVTDVFQGSMRIFTKKLPHPDLPAEEKEQLLHNDEYQETMVESTFMYLTLDLPTAPLYKDEKEQLIIPQVPLFNILAKFNGITEKEYKTYKENFLKRFQLTKLPPYLIFCIKRFTKNNFFVEKNPTIVNFPITNVDLREYLSEEVQAVHKNTTYDLIANIVHDGKPSEGSYRIHVLHHGTGKWYELQDLQVTDILPQMITLSEAYIQIWKRRDNDETNQQGA

Assays:
[1] = target: T1, Topoisomerase 3β (TOP3B), endogenous (human (endogenous in HEK293 and HCT116)); assay: affinity purification with mass spectrometry; endogenous TOP3B immunoprecipitated from HEK293 cells, LC-MS/MS; hits with PSM value > 10
[2] = target: T1, Topoisomerase 3β (TOP3B), endogenous (human (endogenous in HEK293 and HCT116)); assay: affinity purification with mass spectrometry; TOP3B IP-MS in the absence of TDRD3 (Supplementary Fig. 5a); cells not named

Molecule	binding [1]	binding [2]
USP7, endogenous (from UniProt Q93009 1-1102) (enzyme)	binds	
PARP1, endogenous (from UniProt P09874 1-1014) (enzyme)		binds
XRCC1, endogenous (from UniProt P18887 1-633)		binds
B1		binds
B2	binds	
